# The list shows a part of the results.
# Target: T1, OsSMF1 (Oryza sativa, UniProt Q6ZLB0 1-436)
# T1 sequence: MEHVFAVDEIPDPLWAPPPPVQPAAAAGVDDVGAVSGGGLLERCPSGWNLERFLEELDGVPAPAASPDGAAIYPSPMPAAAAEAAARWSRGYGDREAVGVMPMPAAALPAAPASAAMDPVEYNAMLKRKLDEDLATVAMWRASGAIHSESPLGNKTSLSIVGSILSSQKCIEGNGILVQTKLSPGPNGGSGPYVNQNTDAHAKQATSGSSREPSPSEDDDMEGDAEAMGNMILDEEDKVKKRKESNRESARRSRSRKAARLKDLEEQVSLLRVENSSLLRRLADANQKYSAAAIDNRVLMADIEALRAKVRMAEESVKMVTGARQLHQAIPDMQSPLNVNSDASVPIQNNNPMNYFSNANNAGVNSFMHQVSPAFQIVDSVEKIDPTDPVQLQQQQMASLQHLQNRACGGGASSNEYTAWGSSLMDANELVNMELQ
# Test: protein-binding microarray (RPBM); PBS, 2% BSA, 51.3 ng/ul salmon testes DNA, 50 uM zinc acetate, 200 nM TF, 25 C, 1 h; high values mean tight binding
# Conditions: protein: recombinant; tags: N-terminal polyhistidine and DsRed monomer fusion (pET32a); chain copies: 2; label: CyDye5-dUTP incorporated in the synthesized complementary strand; 3' TTTTT single-stranded linker to array surface; dsDNA, one strand shown
# Procedure, shortened: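 Per-feature fluorescence intensity (arbitrary units), read on an Axon 4000B scanner, is the binding signal. Transcription factors carrying an N-terminal polyhistidine tag and DsRed fusion were expressed in E. coli BL21-CodonPlus and purified on Ni–NTA. A custom Agilent array, made double-stranded by primer extension with Cy5-dUTP and blocked with 2% BSA, was incubated with 200 nM protein in PBS, 2% BSA, salmon testes DNA and 50 µM zinc acetate at 25 °C for 1 h and then washed.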
row,Sequence,binding signal
1,GGCTCTTTCACGTAGGACGAGGACATGACATCCTATTAACCGGAGTCACCTAGTGCAG,3560 fluorescence intensity (a.u.)
2,TGTCTGGGGCAAGGTGCGGAGTCACCCATGGTGGCCGGGCCGGAGTCACCTAGTGCAG,4320 fluorescence intensity (a.u.)
3,TCTGCAACAAAATCCAATGCGGACTCAGATTTTCGCCGATCGGAGTCACCTAGTGCAG,3160 fluorescence intensity (a.u.)
4,CCGGATAAGTCGTGCGTAACTGATCCGGACTCCACGCCGTCGGAGTCACCTAGTGCAG,3900 fluorescence intensity (a.u.)
5,ACCTTTGCTCTGGTTTGCTCAATGCTTGTAGAGATTCTGACGGAGTCACCTAGTGCAG,19400 fluorescence intensity (a.u.)
6,AAAGCATGGGTACTCAGCTAGCTTGCTAGTATCGTGTAAACGGAGTCACCTAGTGCAG,3220 fluorescence intensity (a.u.)
7,AGAAGAAGTAGATGAAGAAGGTGAGGTGGCCATTCATATTCGGAGTCACCTAGTGCAG,4360 fluorescence intensity (a.u.)
8,ATATATGGTATTATGCGCAAACGGTAACACGTATGTCTTCCGGAGTCACCTAGTGCAG,3400 fluorescence intensity (a.u.)
9,CAAATGGCACTATAGTGCATGGCATGTGATGACCTCAGCACGGAGTCACCTAGTGCAG,23600 fluorescence intensity (a.u.)
10,GCCTGCTTACTTTCTGCCACCTTTATCTTGCCTAAACAGGCGGAGTCACCTAGTGCAG,3780 fluorescence intensity (a.u.)
11,AAGGGAAGACATGTGGGGCCCACGTGGGCCCCACCATTTTCGGAGTCACCTAGTGCAG,4210 fluorescence intensity (a.u.)
12,TCCTCGATCTCCCTCGCACCCGTCATCACCCTCGAATGGCCGGAGTCACCTAGTGCAG,4240 fluorescence intensity (a.u.)
13,CGGACACGGCCTCGTCAGGGTTCTTGCTAGTTCTTGTAGTCGGAGTCACCTAGTGCAG,3150 fluorescence intensity (a.u.)
14,ACTGGGCCGATGCGGAGCCAACGCCGACGCAGCCGCCAGCCGGAGTCACCTAGTGCAG,3170 fluorescence intensity (a.u.)
15,AAGAGAAAATTTGTTTACTGACCATGACTCCTCTCTCTGACGGAGTCACCTAGTGCAG,3420 fluorescence intensity (a.u.)
16,ACATCATTTACCTGTACAAAACATCTCAATTATGCATTGTCGGAGTCACCTAGTGCAG,3520 fluorescence intensity (a.u.)
17,CGAAGCGAGGGGCGAGCACGTCGACGAGCTTCCCCTTCCCCGGAGTCACCTAGTGCAG,4140 fluorescence intensity (a.u.)
18,CGCTTTTGTGTTTAGTTTAGCGGTGACGTCTTGCGTTTGGCGGAGTCACCTAGTGCAG,5950 fluorescence intensity (a.u.)
19,GCTGCGGCTGCTGTTGCTGCTTGGACTCCACCTCGGCACCCGGAGTCACCTAGTGCAG,3940 fluorescence intensity (a.u.)
20,CACATCACATACTGAATGTAAGACGTGTCTCGAGTATCCGCGGAGTCACCTAGTGCAG,3160 fluorescence intensity (a.u.)
21,CAGGAGGCAGGGGTGATCTTTCAGCGGTTAAATCGGGTGACGGAGTCACCTAGTGCAG,5240 fluorescence intensity (a.u.)

# Single entries from the results shown:
# binding signal, AAGGGAAGACATGTGGGGCCCACGTGGGCCCCACCATTTTCGGAGTCACCTAGTGCAG reads 4210 fluorescence intensity (a.u.)
# binding signal, ATATATGGTATTATGCGCAAACGGTAACACGTATGTCTTCCGGAGTCACCTAGTGCAG reads 3400 fluorescence intensity (a.u.)
# binding signal, TGTCTGGGGCAAGGTGCGGAGTCACCCATGGTGGCCGGGCCGGAGTCACCTAGTGCAG reads 4320 fluorescence intensity (a.u.)

# Remaining list, next part

row,Sequence,binding signal
1,TGACTCTGAGCTGCATGATTTACACGCACACGCGGAGGCTCGGAGTCACCTAGTGCAG,4110 fluorescence intensity (a.u.)
2,AACAATTATCCACAAATGGACAGACATCATCATCGGTCACCGGAGTCACCTAGTGCAG,3470 fluorescence intensity (a.u.)
3,GAAACAACTCCAGCATTCCATAATCATGACACATGTTTTCCGGAGTCACCTAGTGCAG,3380 fluorescence intensity (a.u.)
4,GTTAATAATCCACGTTTTCCGATGCATCCATGACTCATTCCGGAGTCACCTAGTGCAG,7190 fluorescence intensity (a.u.)
5,CACTGCCCATTCGCCACGTCCCCTAACGCTCCAGGTTTATCGGAGTCACCTAGTGCAG,11800 fluorescence intensity (a.u.)
6,CAGCCACACGGCGACACGACACGTACGTTGCAAGCGAGTGCGGAGTCACCTAGTGCAG,3370 fluorescence intensity (a.u.)
7,GAACTGTCCACGTTACCAGCCCGCATTGAATAACGCTTTGCGGAGTCACCTAGTGCAG,4200 fluorescence intensity (a.u.)
8,AATAATTAATTAATCATAGCTTGCAACTGCATATGTAGGGCGGAGTCACCTAGTGCAG,3790 fluorescence intensity (a.u.)
9,TTTCACGAGAGCTTTCCCTTTAAATACATCGCTCGGCTCCCGGAGTCACCTAGTGCAG,24500 fluorescence intensity (a.u.)
10,ACGACCTGCACGTCGCCCTGCTTCATTGCATCTAATGACGCGGAGTCACCTAGTGCAG,3820 fluorescence intensity (a.u.)
11,GGAACACTTGTCACATCATTAAGGTTGATGGTTAGCCCGACGGAGTCACCTAGTGCAG,3230 fluorescence intensity (a.u.)
12,CAGAGCGCGCGTGCGCCGCTGCCGCGTCACGCGCCAATCGCGGAGTCACCTAGTGCAG,9720 fluorescence intensity (a.u.)
13,CTCACTGGTATGCTCACCACCACTTTAAGACTGTGTTTGTCGGAGTCACCTAGTGCAG,3730 fluorescence intensity (a.u.)
14,AATATTGTGCACACACGATACTTCATAGGAATCTAGTGACCGGAGTCACCTAGTGCAG,3360 fluorescence intensity (a.u.)
15,GAGACGCGACGCCGCCCGATGGGTGACTGCCACGTGGCAGCGGAGTCACCTAGTGCAG,19100 fluorescence intensity (a.u.)
16,CGCCGCCGCAGCCTCCTATCCTCCCTAGTCCATCACCGCGCGGAGTCACCTAGTGCAG,3210 fluorescence intensity (a.u.)
17,CACTCACACACACACACAATACAACAAGCCTACAACTCATCGGAGTCACCTAGTGCAG,3330 fluorescence intensity (a.u.)
18,GGCAGTCAAACCAACTCTCATACGAGCTCCTGGCGGTTGTCGGAGTCACCTAGTGCAG,3340 fluorescence intensity (a.u.)
19,GACGCTGTTGTCAGTCTTGATGACATCAGGTACGATGGTTCGGAGTCACCTAGTGCAG,5820 fluorescence intensity (a.u.)
20,TCGGGCCGGGCGGCCCATTTTGCCAGCTCTCCCCAAACCCCGGAGTCACCTAGTGCAG,3460 fluorescence intensity (a.u.)
21,TCACGATTAATTATATCATCATTTTGTATCCTTTGATTTCCGGAGTCACCTAGTGCAG,3480 fluorescence intensity (a.u.)
